According to patent US20140322220A1:
Results are given in words; binding and its absence hold for the method and conditions named. Some results given as binding are weak or reduced against the parent protein; the word gives no strength.

Chains of the proteins cited; added tags and fusions are not shown. Lines headed by an entry give the natural chain unless they say otherwise; changes in a name come on top. A line that says so, or that is headed by a name, gives the form on record, which may keep a tag or linker.
mutated human FGFR2 on AN3-CA cells (P21802, form named): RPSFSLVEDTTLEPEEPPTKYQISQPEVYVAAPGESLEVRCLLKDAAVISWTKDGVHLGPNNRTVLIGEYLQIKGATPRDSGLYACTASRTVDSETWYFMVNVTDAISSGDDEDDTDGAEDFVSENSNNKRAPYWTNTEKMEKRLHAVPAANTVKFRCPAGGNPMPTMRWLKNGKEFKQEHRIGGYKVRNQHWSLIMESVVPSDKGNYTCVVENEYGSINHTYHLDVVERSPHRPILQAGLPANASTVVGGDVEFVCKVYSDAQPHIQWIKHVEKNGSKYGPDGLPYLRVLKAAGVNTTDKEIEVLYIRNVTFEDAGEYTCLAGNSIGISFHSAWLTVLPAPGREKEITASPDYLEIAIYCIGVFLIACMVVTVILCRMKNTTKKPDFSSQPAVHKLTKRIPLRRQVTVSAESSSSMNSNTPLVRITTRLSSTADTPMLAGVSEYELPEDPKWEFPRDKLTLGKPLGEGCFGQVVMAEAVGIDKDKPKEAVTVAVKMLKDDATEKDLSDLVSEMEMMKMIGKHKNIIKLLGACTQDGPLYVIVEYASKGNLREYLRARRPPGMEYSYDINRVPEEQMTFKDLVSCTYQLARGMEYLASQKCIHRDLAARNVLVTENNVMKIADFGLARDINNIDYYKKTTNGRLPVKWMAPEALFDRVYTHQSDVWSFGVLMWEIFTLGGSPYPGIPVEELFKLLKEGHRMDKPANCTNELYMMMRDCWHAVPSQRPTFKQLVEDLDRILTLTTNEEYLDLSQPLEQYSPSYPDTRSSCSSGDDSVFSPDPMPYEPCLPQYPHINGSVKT

Molecular target: mutated human FGFR2 on AN3-CA cells (human) (UniProt P21802)
Assay: FACS, 5 ug/ml, AN3CA cells

binding: binds
B1: M021-H02-hIgG1 (antibody, V domains shown)
VH: EVQLLESGGGLVQPGGSLRLSCAASGFTFSNYGIHWVRQAPGKGLEWVAVISYDGSNKYYADSVKGRFTISRDNSKNTLYLQMNSLRAEDTAMYYCARDSSSAEDYWGQGTLVTVSS
VL: QSVLTQPPSASGTPGQRVTISCSGSSSNTGSNTVNWYQQLPGTAPKLLIYRNNQRPSGVPDRFSGSKSGTSASLAISGLRSEDEADYYCETWDSNTRGVVFGGGTKLTVL
